# No constants are given. Whether binding was seen depends on the method and setting. Binding seen in cells or lysates may run through a third protein. A result given as binding can be weak or reduced; the word gives no strength.
# B1: TBL1 (transducin-beta like 1) (protein, UniProt O60907 1-577)
# chain: MTELAGASSSCCHRPAGRGAMQSVLHHFQRLRGREGGSHFINTSSPRGEAKMSITSDEVNFLVYRYLQESGFSHSAFTFGIESHISQSNINGTLVPPAALISILQKGLQYVEAEISINEDGTVFDGRPIESLSLIDAVMPDVVQTRQQAFREKLAQQQASAAAAAAAATAAATAATTTSAGVSHQNPSKNREATVNGEENRAHSVNNHAKPMEIDGEVEIPSSKATVLRGHESEVFICAWNPVSDLLASGSGDSTARIWNLNENSNGGSTQLVLRHCIREGGHDVPSNKDVTSLDWNTNGTLLATGSYDGFARIWTEDGNLASTLGQHKGPIFALKWNRKGNYILSAGVDKTTIIWDAHTGEAKQQFPFHSAPALDVDWQNNTTFASCSTDMCIHVCRLGCDRPVKTFQGHTNEVNAIKWDPSGMLLASCSDDMTLKIWSMKQEVCIHDLQAHNKEIYTIKWSPTGPATSNPNSNIMLASASFDSTVRLWDIERGVCTHTLTKHQEPVYSVAFSPDGKYLASGSFDKCVHIWNTQSGNLVHSYRGTGGIFEVCWNARGDKVGASASDGSVCVLDLRK
# Molecular target: HPV31 E8^E2C-HA (Human papillomavirus 31)
# Test: co-IP; lysates of stable 293T cell lines (1.5 x 10^7 cells) precipitated with magnetic anti-HA beads, immunoblot for endogenous proteins; IP-buffer 50mM HEPES pH7.5, 150mM NaCl, 10% glycerol, 5mM EDTA, 1mM DTT or 50mM HEPES pH7.9, 150mM NaCl, 0.3% Igepal 630, 1mM DTT
binder,measurement,value
B1,binding,binds
